PubChem BioAssay AID1159508 | Drosophila RNAi Screening Center, 2015

Aim: 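Viability reference data for a dsRNA library against RNA-binding protein genes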
System: Drosophila S2R+ cells
Knock-down reagent: long dsRNA against Drosophila genes
Timing: 5 days
Measurement: 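Luminescent ATP signal as a proxy for cell fitness after 5 days of RNAi, given as a z-score in each replicate and averaged over replicates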
Reading the numbers: mean ATP z-score and ATP z-score: higher = more total ATP luminescence
Call rule: In these data the active calls have mean ATP z-score at about -2 or lower, or at about 2 or higher
Meaning of the calls: active = strong ATP change (up or down); inactive = no strong ATP change
The whole screen tested 812 reagents; below is a part drawn at random. 18 of all reagents (2.2%) were called active. 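Calls include both increased and decreased ATP; roughly one in four reagents has no third replicate value.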 No sequences are given here. The record does not give: the amount of reagent.

no.	gene	amplicon	mean ATP z-score	ATP z-score, replicate 1	ATP z-score, replicate 2	ATP z-score, replicate 3	Outcome
1	Ref2	DRSC02563	-0.0651	-0.631	-0.243	0.692	inactive
2	Ref2	DRSC42665	-0.847	-0.895	-0.878	-0.605	inactive
3	Su(var)205	DRSC03446	0.585	0.422	0.461	0.76	inactive
4	Su(var)205	DRSC37257	0.848	0.62	0.737	1.02	inactive
5	Sxl	DRSC21490	-0.672	-0.712	-0.546		inactive
6	Sxl	DRSC28896	0.67	0.356	0.897		inactive
